The source of these data is the supplement of paper PMC3682954.

For the assay, the system named is RAW 264.7. The experiment in a line: HMGB1-induced TNF-alpha production relative to HMGB1-stimulated control; higher = more TNF-alpha secretion (less inhibition). The following applies: stimulus: HMGB1 5 ug/ml, 18 h.
Setting [1] is: compound concentration: 1 ug/ml.

Structures can show the parent of a compound that is named as a salt. ± gives the standard deviation of the averaged measurements. This is one part of the list. Single values are uncertain, as repeats are few or missing.

In the case of `Fc1ccc(CN(C2=NCCN2)c2c(Cl)cccc2Cl)cc1` [IMID-4F hydrochloride], the “HMGB1-induced TNF-alpha production” value (compound concentration: 3 uM) worked out at 53.5%.

In the case of `CCOC(=O)O[C@]1(C(=O)OCCl)CC[C@H]2[C@@H]3CCC4=CC(=O)C=C[C@]4(C)[C@H]3[C@@H](O)C[C@@]21C`, for the setting “compound concentration: 3 uM”, the “HMGB1-induced TNF-alpha production” value was 59%.

With `O=C(O)C(=O)O.[NH-][C@@H]1CCCC[C@H]1[NH-].[Pt+2]` [Oxaliplatin], the “HMGB1-induced TNF-alpha production” value (compound concentration: 3 uM) is 157%.

`Cc1ccc(NC(=O)c2ccc(CN3CCN(C)CC3)cc2)cc1Nc1nccc(-c2cccnc2)n1` [Imatinib]: the “HMGB1-induced TNF-alpha production” value (compound concentration: 3 uM) amounted to 99.6 ± 2.1%.

On to `Cc1ccc(NC(=O)c2ccc(CN3CCN(C)CC3)cc2)cc1Nc1nccc(-c2cccnc2)n1`, for which the “HMGB1-induced TNF-alpha production” value (compound concentration: 3 uM) was determined as 101%.

As to `Oc1cc2c(c(Cl)c1O)CCNCC2c1ccccc1` (racemic) [(±)-6-Chloro-PB hydrobromide], the “HMGB1-induced TNF-alpha production” value (compound concentration: 3 uM) worked out at 78.4%.

Turning to `Cc1nn(-c2ccccc2)c(C)c1C=NN1CCN(Cc2ccccc2)CC1`, the “HMGB1-induced TNF-alpha production” value (compound concentration: 3 uM) stood at 93.6%.

As for `CCOC(=O)COc1ccc2c(=O)cc(-c3ccccc3)oc2c1`, the “HMGB1-induced TNF-alpha production” value (compound concentration: 3 uM) amounted to 78%.

With `NS(=O)(=O)c1cc2c(cc1Cl)NC(C(Cl)Cl)NS2(=O)=O` (stereo not drawn) [Trichloromethiazide], where the note is “compound concentration: 3 uM”, the “HMGB1-induced TNF-alpha production” value turned out to be 94.6%.

Consider `NS(=O)(=O)c1cc2c(cc1Cl)NC(C(Cl)Cl)NS2(=O)=O` (stereo not drawn), for which the “HMGB1-induced TNF-alpha production” value (compound concentration: 3 uM) was 88.4%.

For `NS(=O)(=O)c1cc2c(cc1Cl)NC(C(Cl)Cl)NS2(=O)=O` (stereo not drawn) [Trichlormethiazide], the “HMGB1-induced TNF-alpha production” value (compound concentration: 3 uM) was 120%.

Turning to `CN[C@@H]1[C@H](O)[C@H](NC)[C@H]2O[C@@]3(O)C(=O)C[C@@H](C)O[C@H]3O[C@@H]2[C@H]1O`, the “HMGB1-induced TNF-alpha production” value (compound concentration: 3 uM) amounted to 88.7%.

In the case of `CN[C@@H]1[C@H](O)[C@H](NC)[C@H]2O[C@@]3(O)C(=O)C[C@@H](C)O[C@H]3O[C@@H]2[C@H]1O` [Spectinomycin dihydrochloride pentahydrate], the “HMGB1-induced TNF-alpha production” value under setting [1] stood at 69.5%.

With `CN[C@@H]1[C@H](O)[C@H](NC)[C@H]2O[C@@]3(O)C(=O)C[C@@H](C)O[C@H]3O[C@@H]2[C@H]1O` [Spectinomycin], the “HMGB1-induced TNF-alpha production” value (compound concentration: 3 uM) came out at 97.7%.

In the case of `CN[C@@H]1[C@H](O)[C@H](NC)[C@H]2O[C@@]3(O)C(=O)C[C@@H](C)O[C@H]3O[C@@H]2[C@H]1O` [Spectinomycin dihydrochloride], the “HMGB1-induced TNF-alpha production” value (compound concentration: 3 uM) stood at 127%.

Consider `CN[C@H](CC(=O)O)C(=O)O` [N-Methyl-D-aspartic acid], for which, where the note is “compound concentration: 3 uM”, the “HMGB1-induced TNF-alpha production” value stood at 115%.

On to `O=C1C[C@@H](c2ccc(O)c(O)c2)Oc2cc(O)cc(O)c21` [Eriodictyol;  (3',4',5,7-tetrahydroxyflavanone)], for which the “HMGB1-induced TNF-alpha production” value under setting [1] is 72.3%.

Consider `CCN(CC)c1ncnc2c1ncn2C1OC(CO)C(O)C1O` (stereo not drawn), for which the “HMGB1-induced TNF-alpha production” value under setting [1] was 64.3%.

On to `Cc1onc(-c2ccccc2Cl)c1C(=O)N[C@@H]1C(=O)N2[C@@H]1SC(C)(C)[C@@H]2C(=O)O` [Cloxacillin sodium salt], for which the “HMGB1-induced TNF-alpha production” value (compound concentration: 3 uM) is 86%.

`Cc1onc(-c2ccccc2Cl)c1C(=O)N[C@@H]1C(=O)N2[C@@H]1SC(C)(C)[C@@H]2C(=O)O`: the “HMGB1-induced TNF-alpha production” value (compound concentration: 3 uM) is 77.1%.

`C#Cc1cccc(Nc2ncnc3cc(OCCOC)c(OCCOC)cc23)c1` [Erlotinib]: for the setting “compound concentration: 3 uM”, the “HMGB1-induced TNF-alpha production” value was 84.7 ± 25%.

`CN(CCO)CC(O)Cn1cnc2c1c(=O)n(C)c(=O)n2C` (stereo not drawn): for the setting “compound concentration: 3 uM”, the “HMGB1-induced TNF-alpha production” value worked out at 107%.

Regarding `Cn1c(=O)c2[nH]c(-c3ccccc3)nc2n(C)c1=O` [1,3-Dimethyl-8-phenylxanthine], the “HMGB1-induced TNF-alpha production” value (compound concentration: 3 uM) came to 116%.

Turning to `CC(C)Nc1cccnc1N1CCN(C(=O)c2cc3cc(NS(C)(=O)=O)ccc3[nH]2)CC1` [Delavirdine], the “HMGB1-induced TNF-alpha production” value (compound concentration: 3 uM) worked out at 93.3%.

For the compound `OC[C@H]1NC[C@H](O)[C@@H](O)[C@@H]1O` [1-Deoxynojirimycin hydrochloride], the “HMGB1-induced TNF-alpha production” value (compound concentration: 3 uM) is 98.1%.

`CC12CCC(CC1=O)C2(C)C` [D-Camphor]: the “HMGB1-induced TNF-alpha production” value under setting [1] was found to be 81.9%.

For the compound `CC12CCC(CC1=O)C2(C)C` (stereo not drawn), the “HMGB1-induced TNF-alpha production” value (compound concentration: 3 uM) worked out at 81%.

For `C[C@@H]1NC(=O)[C@@H](N)CNC(=O)[C@H](C2CCNC(=N)N2)NC(=O)/C(=C/NC(N)=O)NC(=O)[C@H](CNC(=O)CC(N)CCCN)NC1=O.N=C1NCC[C@H]([C@@H]2NC(=O)/C(=C/NC(N)=O)NC(=O)[C@H](CNC(=O)C[C@@H](N)CCCN)NC(=O)[C@H](CO)NC(=O)[C@@H](N)CNC2=O)N1`, the “HMGB1-induced TNF-alpha production” value (compound concentration: 3 uM) was 84.5%.

Take `CN[C@@H]1[C@@H](O[C@H]2O[C@H](CO)[C@@H](N)[C@H](O)[C@H]2O)OC2C[C@@H](N)[C@@H](O[C@H]3[C@H](O)[C@@H](O)[C@H](N)C[C@@H]3N)OC2[C@@H]1O` (stereo partly drawn): where the note is “compound concentration: 3 uM”, the “HMGB1-induced TNF-alpha production” value was determined as 88.1%.

As for `CN[C@@H]1[C@@H](O[C@H]2O[C@H](CO)[C@@H](N)[C@H](O)[C@H]2O)OC2C[C@@H](N)[C@@H](O[C@H]3[C@H](O)[C@@H](O)[C@H](N)C[C@@H]3N)OC2[C@@H]1O` (stereo partly drawn) [Apramycin], the “HMGB1-induced TNF-alpha production” value (compound concentration: 3 uM) is 99.23 ± 0.98%.

`Cc1c(-c2ccccc2)oc2c(C(=O)OCCN3CCCCC3)cccc2c1=O` [Flavoxate hydrochloride]: the “HMGB1-induced TNF-alpha production” value (compound concentration: 3 uM) was 88.7%.

`NCCCC(=O)O` [gamma-AMINOBUTYRIC ACID]: the “HMGB1-induced TNF-alpha production” value (compound concentration: 3 uM) was determined as 83.5%.

With `CCCCCCCCCCCCCCCCCCCCCCO`, the “HMGB1-induced TNF-alpha production” value (compound concentration: 3 uM) was 90.1%.

On to `CCN(CC)CCNC(=O)c1cc(Cl)c(N)cc1OC` [Metoclopramide hydrochloride], for which the “HMGB1-induced TNF-alpha production” value (compound concentration: 3 uM) was found to be 107%.

As to `CCN(CC)CCNC(=O)c1cc(Cl)c(N)cc1OC` [Metoclopramide], the “HMGB1-induced TNF-alpha production” value (compound concentration: 3 uM) came out at 115%.

Take `CCN(CC)CCNC(=O)c1cc(Cl)c(N)cc1OC` [Metoclopramide monohydrochloride]: the “HMGB1-induced TNF-alpha production” value (compound concentration: 3 uM) amounted to 68.3%.

In the case of `CCN(CC)CCNC(=O)c1cc(Cl)c(N)cc1OC`, under “compound concentration: 3 uM”, the “HMGB1-induced TNF-alpha production” value came to 86.2%.

As to `NCCCNCCCCNCCCN` [Spermine tetrahydrochloride], for the setting “compound concentration: 3 uM”, the “HMGB1-induced TNF-alpha production” value was 114%.
